Data from PubChem BioAssay AID192 (DTP/NCI, 2004).
The list does not hold the whole screen: it is rich in T/C values a quarter to a half above the control, in often repeated tests (any T/C) and in doses without a T/C. Other doses and runs of a compound stand elsewhere. T/C: endpoint of the treated group in % of that of the vehicle group. Some entries give survivors of the animals treated and no T/C: the source holds a T/C of zero for them, seemingly a mark for toxic or unscored doses. Some doses without a T/C left all or most animals alive at the check, yet need not have been tolerated: the source hardly ever lists a survival T/C far under the control, and the zero likely stands for such cases as well. Survivors were counted at the toxicity check, usually on the fifth day, unless a day is given; later deaths do not show. Schedule codes are those of the source, taken here to give the interval after Q, in days (D) or hours (H), and the number of doses after X. Some doses were run more than once; their values stand side by side, smallest first. For survival time, the PubChem record calls one and a half times the control and up active, and a quarter to a half above the control has no call in these data; cut-offs in other NCI protocols can differ.

Tested on: BDF1 mice, B16 melanoma ip, median survival T/C
Assay: NCI In Vivo Anticancer Drug Screen. Data for tumor model B16 Melanoma (intraperitoneal) in B6D2F1 (BDF1) mice
Conditions: T/C endpoint: median survival time, higher T/C = longer survival
In short: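 Read-out: survival or tumor size, given as treated/control ratio. Controls received vehicle only; animals bore transplantable tumors.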

[1] = dose: 0.75 mg/kg/injection, schedule: Q01DX009 (ip), vehicle: saline with Tween-80
[2] = dose: 10.0 mg/kg/injection, schedule: Q01DX009 (ip), vehicle: saline
[3] = dose: 200.0 mg/kg/injection, schedule: Q01DX009 (ip), vehicle: Klucel (hydroxypropylcellulose) (HPC)
[4] = dose: 400.0 mg/kg/injection, schedule: Q01DX009 (ip), vehicle: Klucel (hydroxypropylcellulose) (HPC)
[5] = dose: 8.0 mg/kg/injection, schedule: Q01DX009 (ip), vehicle: saline
[6] = dose: 16.0 mg/kg/injection, schedule: Q01DX009 (ip), vehicle: saline
[7] = dose: 100.0 mg/kg/injection, schedule: Q01DX009 (ip), vehicle: Klucel (hydroxypropylcellulose) (HPC)
[8] = dose: 25.0 mg/kg/injection, schedule: Q01DX009 (ip), vehicle: saline with Tween-80
[9] = dose: 400.0 mg/kg/injection, schedule: Q01DX009 (ip), vehicle: saline with Tween-80
[10] = dose: 50.0 mg/kg/injection, schedule: Q01DX009 (ip), vehicle: saline with Tween-80
[11] = dose: 100.0 mg/kg/injection, schedule: Q01DX009 (ip), vehicle: saline with Tween-80
[12] = dose: 128.0 mg/kg/injection, schedule: Q01DX009 (ip), vehicle: saline

For `O=C(NCCN1CC1)C(=O)NCCN1CC1`, the T/C [1] was 133 % of control, the T/C (dose: 1.56 mg/kg/injection, schedule: Q04DX003 (ip), vehicle: saline with Tween-80) was 134 % of control and the survivor count (dose: 3.0 mg/kg/injection, schedule: Q01DX009 (ip), vehicle: saline with Tween-80) was 10 of 10. For the same molecule, the survivor count (dose: 6.0 mg/kg/injection, schedule: Q01DX009 (ip), vehicle: saline with Tween-80) was 10 of 10, the survivor count (dose: 12.0 mg/kg/injection, schedule: Q01DX009 (ip), vehicle: saline with Tween-80) was 10 of 10 and the survivor count (dose: 12.5 mg/kg/injection, schedule: Q04DX003 (ip), vehicle: saline with Tween-80) was 10 of 10. For the same molecule, the survivor count (dose: 25.0 mg/kg/injection, schedule: Q04DX003 (ip), vehicle: saline with Tween-80) was 8 of 10.
For `CC(C)(C#N)N1CCCCC1`, the survivor count (dose: 5.0 mg/kg/injection, schedule: Q01DX009 (ip), vehicle: saline) was 7 of 10 and the survivor count [2] was 6 of 10.
`COc1cc2c(c(OC)c1OC)-c1ccc(OC)c(=O)cc1[C@@H](NC(=O)CF)CC2` was tested, and the T/C (dose: 0.18 mg/kg/injection, schedule: Q01DX009 (ip), vehicle: saline with Tween-80) was 134 % of control, the survivor count (dose: 0.37 mg/kg/injection, schedule: Q01DX009 (ip), vehicle: saline with Tween-80) was 7 of 10 and the survivor count [1] was 0 of 10.
With `C/C=C(\CC)C(=O)NC(N)=O` the survivor count (dose: 100.0 mg/kg/injection, schedule: Q04DX003 (ip), vehicle: Klucel (hydroxypropylcellulose) (HPC)) was 10 of 10 and the survivor count (dose: 400.0 mg/kg/injection, schedule: Q04DX003 (ip), vehicle: Klucel (hydroxypropylcellulose) (HPC)) was 10 of 10.
For `N#CO`, the survivor count (dose: 150.0 mg/kg/injection, schedule: Q01DX009 (ip), vehicle: saline) was 10 of 10.
`CC(=O)C(C)(NCc1ccccc1)c1ccccc1` (stereo unspecified) was tested, and the survivor count [3] was 10 of 10 and the survivor count [4] was 7 of 10.
With `COc1cc2c(cc1O)N=C[C@@H]1CCC(O)N1C2=O` (mixture of isomers) the survivor count [5] was 8 of 10, the survivor count [6] was 0 of 10 and the survivor count (dose: 32.0 mg/kg/injection, schedule: Q01DX009 (ip), vehicle: saline) was 0 of 10.
With `CCC(C)C(C(=O)OCCN(CC)CC)c1ccccc1` (stereo unspecified) the survivor count [7] was 9 of 10 and the survivor count [3] was 3 of 10.
`NCCN.[Ni+2].[O-]c1ccccc1[O-].[O-]c1ccccc1[O-]` was tested, and the survivor count [8] was 9 of 10.
In the case of `Cc1c(C)c2c(c(C)c1O)CCC(C)(CCCC(C)CCCC(C)CCCC(C)C)O2` (stereo unspecified), the survivor count [9] is reported as 6 of 6.
With `Oc1cccc2c1[O][Sb][O]2` the survivor count (dose: 12.5 mg/kg/injection, schedule: Q01DX009 (ip), vehicle: saline with Tween-80) was 10 of 10, the survivor count [8] was 10 of 10 and the survivor count [10] was 9 of 9. The survivor count [11] was 1 of 10.
In the case of `CC1=CCC(C(C)(C)c2ccc(O)cc2)CC1` (stereo unspecified), the survivor count [10] is reported as 10 of 10 and the survivor count [11] is reported as 10 of 10.
For `Cc1cccc(C)c1NC(=O)Nc1ccc(Cl)c(Cl)c1`, the survivor count (dose: 200.0 mg/kg/injection, schedule: Q01DX009 (ip), vehicle: other) was 10 of 10 and the survivor count (dose: 400.0 mg/kg/injection, schedule: Q01DX009 (ip), vehicle: other) was 10 of 10.
In the case of `CC(C)c1ccc(C(c2c(O)c3ccccc3oc2=O)c2c(O)c3ccccc3oc2=O)cc1`, the survivor count [7] is reported as 10 of 10, the survivor count [3] is reported as 10 of 10 and the survivor count [4] is reported as 8 of 10.
`O=C1c2c(O)cccc2-c2nn(CCNCCO)c3ccc(NCCNCCO)c1c23` was tested, and the survivor count (dose: 11.0 mg/kg/injection, schedule: Q01DX009 (ip), vehicle: water) was 9 of 10, the survivor count (dose: 22.0 mg/kg/injection, schedule: Q01DX009 (ip), vehicle: water) was 10 of 10 and the survivor count (dose: 44.0 mg/kg/injection, schedule: Q01DX009 (ip), vehicle: water) was 8 of 10.
In the case of `Cc1cc(N(CCCl)CCCl)ccc1C=Nc1cccnc1`, the T/C (dose: 200.0 mg/kg/injection, schedule: Q01DX009 (ip), vehicle: saline with Tween-80) is reported as 127 % of control and the survivor count [9] is reported as 10 of 10.
With `COc1cc2c(cc1Oc1c(Oc3c(O)c(OC)cc4c3C(CC(C)C)N(C)CC4)c(OC)cc3c1C(CC(C)C)N(C)CC3)C(CC(C)C)N(C)CC2` (stereo unspecified) the survivor count [7] was 5 of 10.
`CCC(C)C1NC(=O)C(NC(=O)c2c3nc4c(C(=O)NC5C(=O)NC(C(C)CC)C(=O)N6CCCC6C(=O)N(C)CC(=O)N(C)C(C(C)C)C(=O)OC5C)cc(N)c(C)c4oc-3c(C)c(=O)c2N)C(C)OC(=O)C(C(C)C)N(C)C(=O)CN(C)C(=O)C2CCCN2C1=O` (stereo unspecified) was tested, and the T/C (dose: 50.0 micrograms/kg/injection, schedule: Q01DX009 (ip), vehicle: water) was 125 % of control, the T/C (dose: 100.0 micrograms/kg/injection, schedule: Q01DX009 (ip), vehicle: water) was 132 % of control and the survivor count (dose: 178.0 micrograms/kg/injection, schedule: Q01DX009 (ip), vehicle: water) was 10 of 10. For the same molecule, the T/C (dose: 200.0 micrograms/kg/injection, schedule: Q01DX009 (ip), vehicle: water) was 145 % of control, the survivor count (dose: 266.0 micrograms/kg/injection, schedule: Q01DX009 (ip), vehicle: water) was 10 of 10 and the survivor count (dose: 400.0 micrograms/kg/injection, schedule: Q01DX009 (ip), vehicle: water) was 10 of 10. The survivor count (dose: 600.0 micrograms/kg/injection, schedule: Q01DX009 (ip), vehicle: water) was 10 of 10.
For `COc1ccc(C[C@H](N)C(=O)NC2C(CO)OC(n3cnc4c(N(C)C)ncnc43)C2O)cc1` (stereo partly specified), the T/C [5] was 130 % of control, the T/C [2] was 133 % of control and the T/C [6] was 139 % of control. The T/C (dose: 20.0 mg/kg/injection, schedule: Q01DX009 (ip), vehicle: saline) was 135 % of control, the T/C (dose: 40.0 mg/kg/injection, schedule: Q01DX009 (ip), vehicle: saline) was 125 and 137 % of control and the T/C (dose: 64.0 mg/kg/injection, schedule: Q01DX009 (ip), vehicle: saline) was 132 and 142 % of control. The T/C (dose: 80.0 mg/kg/injection, schedule: Q01DX009 (ip), vehicle: saline) was 134 % of control, the T/C [12] was 142 % of control and the survivor count [12] was 5 of 5. The survivor count (dose: 160.0 mg/kg/injection, schedule: Q01DX009 (ip), vehicle: saline) was 9 of 10 and 10 of 10, the survivor count (dose: 256.0 mg/kg/injection, schedule: Q01DX009 (ip), vehicle: saline) was 1 of 5 and the survivor count (dose: 320.0 mg/kg/injection, schedule: Q01DX009 (ip), vehicle: saline) was 0 of 10 and 1 of 10.
For `O=Nc1c(O)ccc2ccccc12`, the survivor count [7] was 0 of 10.
